Substitutions are numbered along the chain they refer to. No constants are given. Whether binding was seen depends on the method and setting. Some entries that bind do so weakly or less than the wild type.
How the values were obtained:
[1] = target: recombinant extracellular loop EC2 of human CD151 (amino acids 130 to 221, C-terminal Poly-His tail) (human) (UniProt P48509); assay: Western blot, recombinant CD151 EC2 protein, non-reductive conditions, antibody 0.5 µg/ml
[2] = target: recombinant extracellular loop EC2 of human CD151 (amino acids 130 to 221, C-terminal Poly-His tail) (human) (UniProt P48509); assay: Western blot, purified recombinant EC2, non reducing conditions, antibody 0.5 µg/ml

Protein sequences, listed by entry. Tags and fused reporters are not part of them. Residues count along the entry.
UniProt P48509, residues 130-221: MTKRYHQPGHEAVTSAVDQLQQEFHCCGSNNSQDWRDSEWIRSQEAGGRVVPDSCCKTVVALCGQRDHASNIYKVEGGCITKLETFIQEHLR

B1: murine monoclonal antibody 203B6 (hybridoma CNCM I-3920) (antibody, mouse IgG1, V domains shown)
VH: EVKLVESGGGLVQPGGSLKLSCAASGFTFSTYTMSWVRQTPEKRLEWVAYISSGGGTTYYPDTVKGRFTISRDNARNTLYLQMNSLKSEDTAMYYCATPRIGTGFAYWGQGTLVTVSA
VL: DIVLSQSPASLALSLGQRATISCRASASVEYYGTSLMHWYQQKPGQPPKLLIYEASNVESGVPARFSGSGSGTDFSLNIHPVEEDDLAIYFCQQSRKAPYTFGGGTKLEIK
[1]
  binding: binds

B2: murine monoclonal antibody 211F3 (hybridoma CNCM I-3918) (antibody, mouse IgG1, V domains shown)
VH: B1 VH with G10D, G56V, V64I, R76K, Y80F, A97T, T98S, I101T
VL: B1 VL with S5T, E30D, H38Q
[1]
  binding: binds

B3: murine monoclonal antibody 214B2 (hybridoma CNCM I-3919) (antibody, mouse IgG1, V domains shown)
VH: QVQLQQPGSVLVRPGASVKLSCKASGYTFTSSSMHWAKQRPGQGLEWIGEIHPNSGNTNNNEKFKGKATLTVDTSSSTAYVDLSSLSSEDSAVYYCARARSFYYAMDCWGQGTSVTVSS
VL: NIVMTQSPKSMSMSVGERVTLSCKASENVGTYVSWYQQKPEQSPKLLIYGASNRYTGVPDRFTGSGSATDFTLTISSVQAEDLADYHCGQTYSFPYTFGGGTKLEIK
[1]
  binding: binds

B4: chimeric antibody c214B2[IgG1] (antibody, V domains shown)
VH: B3 VH
VL: NIVMTQSPKSMSMSVGERVTLSCKASENVGTYVSWYQQKPEQSPKLLIYGASNRYTGVPDRFTGSGSATDFTLTISSVQAEDLADYHCGQTYSFPYTFGGGTKLEIKR
[2]
  binding: binds

B5: chimeric antibody c203B6[IgG1] (antibody, V domains shown)
VH: B1 VH
VL: DIVLSQSPASLALSLGQRATISCRASASVEYYGTSLMHWYQQKPGQPPKLLIYEASNVESGVPARFSGSGSGTDFSLNIHPVEEDDLAIYFCQQSRKAPYTFGGGTKLEIKR
[2]
  binding: binds
